Values joined by “and” are separate entries in the source; they are usually repeats but may differ in a detail not shown here. Equal entries are not always repeated. The campaign covered roughly 400,000 compounds. About 13,000 (3.2%) were called active. This list was built around the results that the source calls inconclusive (neither active nor inactive); the mix of calls is not that of the screen. The call rests on the fitted dose curve; in most records, active means well fitted cell-killing curve with a large enough effect; inconclusive means small, poorly fitted or top-dose-only effect, or effect the other way; inactive means flat fitted curve, though single readings scatter. Potencies of inconclusive entries are doubtful fits and often do not repeat.
Experiment: qHTS assay for MDR1-selective chemotherapeutics: Primary screen using the drug-selected MDR subline cells KB-V1; further: nearly all actives have a fitted effect of over 60% in size
Settings: KB-V1 MDR cells viability, CellTiter-Glo, 72 h; activity change, negative = cytotoxicity: at 46.1 µM (top of the series)
Procedure, shortened: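 Compound-treated KB-V1 multidrug-resistant cells, 72 h, 37 degrees C; viability by CellTiter-Glo. Fitted qHTS curves give the values.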
On the % scale 0 is the no-effect control and ±100 the full control effect; potency means the concentration at half of the fitted maximal effect.

Structure (SMILES) | Potency | activity change, negative = cytotoxicity
CCOC(=O)c1[nH]c(C)c(CCC(=O)Nc2ccccc2C(=O)OC)c1C | inconclusive: 18.4 µM [cytotoxic, single point] | 
Cc1ccc(Cl)cc1N1CCN(c2cccc[n+]2C)CC1 | inconclusive: 2.06 µM [rising, partial curve, poor fit] | 
Cc1ccc(NC(=O)c2nc[nH]c2C(=O)NCCCCCNC(=O)OC(C)(C)C)cc1 | inconclusive: 29.1 µM [cytotoxic, single point] | 
CCC(C)(C)C1CCc2[nH]nc(C(=O)NCc3ccccn3)c2C1 (stereo not drawn) | inactive | 
O=C(Nc1ccccc1)C1CCCCN1S(=O)(=O)c1ccccc1 (stereo not drawn) | inconclusive: 14.6 µM [cytotoxic, partial curve] | 
CSc1ncccc1C(=O)N1CCCC(CCC(=O)NCc2ccccc2F)C1 (stereo not drawn) | inactive | 
O=c1[nH]c(=S)c2n[nH]nc2[nH]1 | inconclusive: 23.1 µM [cytotoxic, single point] | 
CCOc1ccccc1Cn1c(=O)sc2ccccc21 | inconclusive: 16.4 µM [cytotoxic, partial curve, poor fit] | 
CCCCN(CCCC)CCCNC(=O)C1CC(c2cc(C(F)(F)F)cc(C(F)(F)F)c2)=NO1 (stereo not drawn) | inconclusive: 0.0052 µM [rising, full curve, poor fit] | 
CCN(CC(=O)Nc1c(F)cccc1F)C(=O)c1ccc(COc2ccccc2)cc1 | inconclusive: 16.4 µM [cytotoxic, single point] | 
CCNC(=S)N/N=C(\C)c1ccco1 | inactive | 
Cc1ccc(CNC(=O)c2ccc3c(c2)N(Cc2ccccc2Cl)C(=O)CS3)cc1 | inactive | 
CCN1CCCC1CNC(=O)c1cc2c(-c3cccc(OC)c3)nn(C)c2s1 (stereo not drawn) | inactive | 
Cc1c(C(=O)O)cccc1-n1c(C)cc(C=O)c1C | inconclusive: 29.1 µM [rising, single point] | 
O=C(Nc1ncc([N+](=O)[O-])s1)c1ccccc1Br | inactive | 
CCOC(=O)C1=C(C)NC(SC)=C(C#N)C1CC(C)C (stereo not drawn) | active: 5.17 µM | 
CS(=O)(=O)c1ccc(N)c(SSc2cc(S(C)(=O)=O)ccc2N)c1 | inactive | 
NS(=O)(=O)c1ccc(NCc2cc(Cl)ccc2OCc2ccc(F)cc2)cc1 | inconclusive: 14.6 µM [cytotoxic, partial curve] | 
Cc1cccc(CSc2nc(=O)c3c(n2C)NC(=O)CC3c2cc(F)cc(F)c2)c1 (stereo not drawn) | inconclusive: 13 µM [rising, partial curve, poor fit] | 
Cc1cc(S(=O)(=O)Nc2nc(CN3CCOCC3)nc3sc4c(c23)CCC4)ccc1F | inconclusive: 29.1 µM [cytotoxic, single point] | 
O=C1CCCCCCC(=O)[C@H](O)C[C@H](c2ccccc2)O1 | inactive | 
Cn1c(=O)c2c(nc(N3CCNCC3)n2Cc2ccccc2Cl)n(C)c1=O | inactive | 
O=c1oc2ccccc2c(N2CCCCC2)c1CN1CCCC1 | active: 23.1 µM | 
Clc1ccccc1Cn1nnc2c(NCCN3CCOCC3)ncnc21 | active: 20.6 µM | 
O=C(CN1CCCC1)Nc1ccccc1Sc1ccc(Cl)cc1 | inconclusive: 20.6 µM [cytotoxic, partial curve] | 

Structure (SMILES) | Potency | activity change, negative = cytotoxicity
COC(=O)c1c(NC(=O)c2nc3nc(C)cc(C(F)F)n3n2)sc2c1CCC2 | inconclusive: 23.1 µM [cytotoxic, partial curve, poor fit] | 
O=C(Nc1ccc(N2CCOCC2)cc1)c1ccc(-c2ccccc2[N+](=O)[O-])o1 | inconclusive: 11.6 µM [cytotoxic, partial curve] | 
O=C(c1cc([N+](=O)[O-])ccc1Cl)N1c2ccccc2Sc2ccccc21 | inactive | 
COc1cc(-c2noc(C)c2/C=C/c2cccc([N+](=O)[O-])c2)cc(OC)c1OC | active: 2.91 µM and active: 5.8 µM | 
O=C(Nc1cccc(Cl)c1)c1csnn1 | inactive | 
C#CCOCCOCCOCCNc1nc(N2CCOCC2)nc(N2CCN(C(=O)[C@H](CCCCN)n3cc(CCC(=O)O)nn3)CC2)n1 | inconclusive: 29.1 µM [rising, single point] | 
CC(=O)c1cc2c(cc1NC(=O)CN1CCCCCC1)OCO2 | inconclusive: 14.6 µM [cytotoxic, partial curve, poor fit] | 
O=C(Nc1nnc(-c2ccccc2F)s1)C1CCN(S(=O)(=O)c2ccc(Cl)cc2)CC1 |  | inconclusive: -35.2%
Cn1c(C(=O)N2CCCC(C(=O)NCCCc3ccccc3)C2)cc2sccc21 (stereo not drawn) | active: 20.6 µM | 
CCOC(=O)Cc1c(C)nc2c(-c3ccccc3)cnn2c1C | inactive | 
COC(=O)c1ccsc1NC(=O)CCc1ccccc1 | inconclusive: 29.1 µM [rising, single point] | 
COC(=O)C[C@H]1c2cc(C(F)(F)F)ccc2S(=O)(=O)N1Cc1ccccc1OC | inconclusive: 6.51 µM [cytotoxic, partial curve] | 
COC(CNC(=O)CSCc1nc(-c2ccc(SC)cc2)oc1C)OC | inconclusive: 20.6 µM [cytotoxic, single point] | 
Cc1nc(NC(=O)/C=C/c2ccc(C(C)(C)C)cc2)sc1C(=O)N(C)C | inconclusive: 18.4 µM [cytotoxic, single point] | 
OC[C@@H]1CN(Cc2ccccc2)C[C@H](n2cnc3c(NC4CC4)ncnc32)O1 | inactive | 
Cc1ccc(S(=O)(=O)N2CCCC2)cc1C(=O)NCCOc1ccccc1 | inactive | 
O=C(N/C(=C\c1cccs1)C(=O)N1CCCCCC1)c1ccccc1 | inactive | 
O=C(C=C(C(=O)c1ccccc1)c1ccccc1)c1ccccc1 | inactive | 
O=C(NCC(=O)N(Cc1cccs1)C(C(=O)NC1CCCCC1)c1ccco1)c1cccs1 (stereo not drawn) | inconclusive: 7.31 µM [cytotoxic, partial curve] | 
CCCCC/C(=N\NC(=O)CCC(=O)NCc1ccccc1)c1ccccc1 | inconclusive: 29.1 µM [cytotoxic, single point] | 
On1ccccc1=S | inconclusive: 16.4 µM [cytotoxic, single point] | 
O=C(OCC(=O)N1CCOCC1)c1ccccc1Br | inactive | 
CC(C)COP(=O)(OCC(C)C)C(Nc1ccccc1)c1ccccc1 (stereo not drawn) | inconclusive: 10.3 µM [cytotoxic, partial curve, poor fit] | 
Cc1ccc(NC(=O)C2CC=CCC2C(=O)N2CCCCC2)cc1 (stereo not drawn) | inconclusive: 8.2 µM [cytotoxic, partial curve] | 
COc1cccc(/C=N/Nc2nc(Nc3ccccc3)nc(-n3nc(C)cc3C)n2)c1O | inconclusive: 1.16 µM [cytotoxic, full curve, poor fit] | 

Structure (SMILES) | Potency | activity change, negative = cytotoxicity
CCOC(=O)C(=CNc1ccc(NC2=NCC(C)(C)S2)cc1)C(=O)OCC | inactive | 
CCN1C(=O)C(CC(=O)Nc2cccc(C(C)=O)c2)S/C1=N\c1ccccn1 (stereo not drawn) | inactive | 
CSCCC(NC(=O)c1ccc(Cl)cc1Cl)C(=O)N1CCN(C(=O)c2ccccc2)CC1 (stereo not drawn) | inactive | 
Cc1ccc(OCC(=O)Nc2cccc(-c3nnc(-c4ccccc4)o3)c2)cc1 | active: 2.31 µM | 
Cc1cccn2cc(COc3cccc([N+](=O)[O-])c3)nc12 | inactive | 
O=C(Nc1ccc2c(c1)OCCO2)C(c1ccnc2ccccc12)N1CCN(C/C=C/c2ccccc2)CC1 (stereo not drawn) | inconclusive: 29.1 µM [cytotoxic, single point] | 
COc1ccc(C(=O)Nc2cccc(C(=O)N3CCCC3)c2)cc1 | active: 20.6 µM | 
O=C(Nc1ccc(F)c([N+](=O)[O-])c1)c1ccc2c(c1)OCCO2 | inconclusive: 20.6 µM [cytotoxic, single point] | 
CCOC(=O)N1CCN(C(=O)c2ccc(Cn3c(=S)[nH]c4cc5c(cc4c3=O)OCO5)cc2)CC1 | inconclusive: 20.6 µM [cytotoxic, single point] | 
C=CCNC(=O)CSc1nnc(-c2cccc(S(=O)(=O)N3CCOCC3)c2)o1 | inactive | 
Cc1sc2nc(C3CC3)nc(SCC(=O)N3CCc4ccccc4C3)c2c1C | active: 5.8 µM | 
Cc1cc(Br)ccc1NC(=O)CN(C)C(=O)CSCc1ccccc1 | inconclusive: 20.6 µM [cytotoxic, single point] | 
CC(C)CCOP(=O)(c1ccc(N(C)C)cc1)C(O)c1ccc(C(C)C)cc1 (stereo not drawn) | inconclusive: 20.6 µM [cytotoxic, single point] | 
CC(Oc1ccc(Br)cc1)C(=O)NC1CCN(Cc2ccccc2)CC1 (stereo not drawn) | inconclusive: 29.1 µM [cytotoxic, single point] | 
CC(C)CNC(=O)c1ccc(NC(=O)c2cccs2)cc1 | inconclusive: 20.6 µM [cytotoxic, partial curve] | 
CCOC(=O)CNC(=O)CNC(=O)c1nn(-c2ccc(OC)c(Cl)c2)c(=O)c2ccccc12 | inactive | 
Cc1ccc2nc3c(cc(C(=O)NC4CCCCC4)c(=N)n3C3CCCCC3)c(=O)n2c1 | inconclusive: 23.1 µM [cytotoxic, single point] | 
CCNC(=O)Nc1ccccc1C(=O)OC | inactive | 
O=C(Nc1ccc(O)cc1)c1cccc(S(=O)(=O)N2CCOCC2)c1 | inconclusive: 29.1 µM [rising, single point] | 
CCOC(=O)N1CCN(CCC(=O)Nc2cccc(C)c2)CC1 | inconclusive: 10.3 µM [cytotoxic, partial curve] | 
COC(=O)c1ccc(OCCCCN2CC(C)OC(C)C2)cc1 (stereo not drawn) | inconclusive: 20.6 µM [cytotoxic, single point] | 
CCOC(=O)C1CCCN(C(=O)c2ccc3c(c2)N(Cc2ccccc2)C(=O)c2ccccc2S3=O)C1 (stereo not drawn) | inconclusive: 6.51 µM [cytotoxic, full curve] | 
O=C(CN1CCCCCC1)OCCN=C1NS(=O)(=O)c2ccccc21 | inconclusive: 29.1 µM [rising, single point] | 

Of the compounds above, these have bromine.
Structure (SMILES) | Potency | activity change, negative = cytotoxicity
O=C(Nc1ncc([N+](=O)[O-])s1)c1ccccc1Br | inactive | 
O=C(OCC(=O)N1CCOCC1)c1ccccc1Br | inactive | 
Cc1cc(Br)ccc1NC(=O)CN(C)C(=O)CSCc1ccccc1 | inconclusive: 20.6 µM [cytotoxic, single point] | 
CC(Oc1ccc(Br)cc1)C(=O)NC1CCN(Cc2ccccc2)CC1 (stereo not drawn) | inconclusive: 29.1 µM [cytotoxic, single point] | 
